# Data taken from patent US20250136722A1, “CYTOTOXICITY TARGETING CHIMERAS” (GLAXOSMITHKLINE INTELLECTUAL PROPERTY DEVELOPMENT LIMITED, priority 2021, published 2025).
# At least one compound was matched to its structure with a doubt left.
# Legend:
# [1] = tested on: MC38 tumors; experiment: MC38 tumor growth with or without depletion of CD4 and CD8 T cells (Example 209); format: in vivo; conditions: human CCR2 knock-in mice, anti-cotinine antibody + ARM compound
# [2] = tested on: MC38 tumor; CCR2 expressing cells; experiment: MC38 tumor bearing human CCR2 knock-in mice dosed with ARM compound and anti-cotinine antibody (Example 204); format: in vivo, Human CCR2 knock-in C57 mice; conditions: ARM compound+antibody as compared to ARM compound alone
# [3] = tested on: Anti-cotinine antibody SEQ ID NO: 11 / SEQ ID NO: 12 (rabbit version); experiment: Binding of rabbit anti-cotinine antibody to ARM compounds by SPR, Biacore 8k, 25° C. (Example 202); conditions: reference 3: association 360 s, dissociation 600 s at 30 μl/min, top concentration 2.50E−08 or 6.25E−09 M
# Source text: (§1) Anti-cotinine antibodies having a heavy chain sequence of SEQ ID NO: 9 and a light chain sequence of SEQ ID NO: 10 (humanized version) or a heavy chain sequence of SEQ ID NO: 11 and a light chain sequence of SEQ ID NO: 12 (rabbit version) were captured via the Fc domain to a protein A or A/G surface on flow cell 2 of a CM5 sensor chip using the Biacore 8k.
# After antibody capture, a 1500 second wait step was included to reduce drift in the binding step. ARM compounds of Formula (I) were then flowed over the captured antibodies at varying top concentrations ranging from 250 nM to 4 μM (see Table 6 below for top concentration values). The top concentration was diluted 4-fold over 5 dilutions (with a 0 nM compound cycle included to blank subtract the data). Association and dissociation times of the ARMs compounds of Formula (I) varied between experiments as follows and indicated in Table 6 below: reference 1—association for 600 seconds and dissociation for 1200 seconds at 20 μl/min; reference 2—association for 240 seconds and dissociation for 300 seconds at 30 μl/min; reference 3—association for 360 seconds and dissociation for 600 seconds at 30 μl/min. Anti-cotinine antibody bound to the protein A or A/G surface was regenerated using 50 mM NaOH. Experiments were run at 25° C. at pH 7.4 using HBS-EP+ buffer using Biacore 8K control software and evaluated using Biacore Insight Evaluation software. Curves were fit with the 1:1 kinetic fit inherent to the software, utilising a local Rmax and local drift setting.
# (§2) Anti-cotinine antibody was tested for binding to ARMs compounds of Formula (I) of the invention in the above assay in or more experimental runs and the results are shown in Table 6 below. Affinity is reported as a pKd value. The pKd value is the negative log of the Kd value, wherein the Kd value is the dissociation constant measured in molar (M) as noted above. For compounds tested in more than one experimental run, the pKd value is reported as an average.
# [4] = tested on: Anti-cotinine antibody SEQ ID NO: 9 / SEQ ID NO: 10 (humanized version); experiment: Binding of humanized anti-cotinine antibody to ARM compounds by SPR, Biacore 8k, 25° C. (Example 202); conditions: reference 1: association 600 s, dissociation 1200 s at 20 μl/min, top concentration 2.50E−08 M
# Source text: as §1
# After antibody capture, a 1500 second wait step was included to reduce drift in the binding step. ARM compounds of Formula (I) were then flowed over the captured antibodies at varying top concentrations ranging from 250 nM to 4 μM (see Table 6 below for top concentration values). The top concentration was diluted 4-fold over 5 dilutions (with a 0 nM compound cycle included to blank subtract the data). […] Experiments were run at 25° C. at pH 7.4 using HBS-EP+ buffer using Biacore 8K control software and evaluated using Biacore Insight Evaluation software. […]
# as §2, with “Affinity is reported as a pKd value.” left out, “For compounds tested in more than one experimental run, the pKd value is reported as an average.” left out
# [5] = biological target: Anti-cotinine antibody (SEQ ID NO: 11 / SEQ ID NO: 12, rabbit variable region with human IgG1 Fc domain); experiment: Binding of anti-cotinine antibody to ARM compounds by SPR, Biacore T200, 37° C. (Example 202); conditions: pH 7.4, rabbit variable region/human IgG1 Fc antibody captured on protein A
# Experimental: Anti-cotinine antibodies having a heavy chain sequence of SEQ ID NO: 11 and a light chain sequence of SEQ ID NO: 12 (rabbit variable region with human IgG1 Fc domain containing a DE mutation (S239D/1332E)) were captured on one or more flow cells of a protein A sensor chip (Cytiva) using a Biacore T200 while reserving flow cell 1 as a reference. Following capture, a 3000 second wait step was included to reduce drift during compound analysis. ARM compounds of Formula (I) were then injected at 100 μL/min with 200 and 2000 second association and dissociation times. The entire experiment was run at 37° C. with running buffer containing 10 mM HEPES pH 7.4, 150 mM NaCl, 0.005% P20 and 1% DMSO. […] The experiment was run using Biacore T200 control software and evaluated using Biacore T200 Evaluation software. Curves were fit with a 1:1 kinetic binding model to obtain kon(1/Ms), koff(1/s), Kd (M) determined as koff/kon, and residence time determined as 1/koff. […]
# as §2, with “5” for “6”, “Affinity is reported as a pKd value.” left out, “For compounds tested in more than one experimental run, the pKd value is reported as an average.” left out
# [6] = tested on: CCR2+ cells; experiment: Ex vivo T cell expansion following MDSC depletion (Example 205); format: cell-based
# [7] = tested on: MC38 tumors; experiment: CD4/CD8 T cell depletion study in MC38 tumors (Example 209); format: in vivo, human CCR2 knock-in mice; conditions: MC38 tumors in hCCR2 knock-in mice; anti-CD8 and anti-CD4 pre-treatment; IV pre-mixed every 6 days
compound,measurement,setting,value
"CN1C(=O)C[C@H](C(=O)NCCOCCOCCOCCOCCOCCOCCOCCOCCC(=O)N[C@@H]2C[C@H](NC(C)(C)C)CC[C@@H]2N2CC[C@H](Nc3ncnc4ccc(C(F)(F)F)cc34)C2=O)[C@H]1c1cccnc1 [Example 36, (2S,3S)-N-(27-(((1R,2S,5R)-5-(tert-Butylamino)-2-((S)-2-oxo-3-((6-(trifluoromethyl)quinazolin-4-yl)amino)pyrrolidin-1-yl)cyclohexyl)amino)-27-oxo-3,6,9,12,15,18,21,24-octaoxaheptacosyl)-1-methyl-5-oxo-2-(pyridin-3-yl)pyrrolidine-3-carboxamide]",tumor growth inhibition of the antibody/ARM compound,[1],dependent upon the presence of CD4 and CD8 T cells
same,percentage of CD8+ T cells,[2],increased
same,percentage of mMDSCs,[2],decreased
same,ka,[3],3.17e+06 M⁻¹ s⁻¹
same,kd,[3],0.000365 s⁻¹
same,pKd,[3],9.94
same,ka,[4],124000 M⁻¹ s⁻¹
same,kd,[4],0.000751 s⁻¹
same,pKd of Antibody for ARM Compound of Formula (I),[5],8.9915
same,depletion of CCR2+ cells (flow cytometry),[6]; ARM compound in the presence of anti-cotinine antibody,depletion of CCR2+ cells
same,CD8+ T cell expansion (percentage of CD8+ T cells divided),[6]; donor samples in which robust CCR2+ cell depletion was observed,observed in 2 of 3 donor samples
same,tumor growth inhibition of the antibody/ARM compound,[7],dependent upon the presence of CD4 and CD8 T cells
